The other results are listed elsewhere or left out.
How the values were obtained:
Assay in all cases: log2 fold change, soluble protein after heating vs DMSO (PISA); higher = thermal stabilisation; K562 cells, 10 uM, 30 min; active = over 0.2 and 3.5 SD of the protein, either way, in both replicates (recomputed)
[1] = compound: CC1=C(C=C(C=C1)NC(=O)C2=CC(=CC=C2)C(C)(C)C#N)NC3=CC4=C(C=C3)N=CN(C4=O)C
In short: (§1)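 Aliquots of K562 cells (2×10^6 cells/mL) treated with 10 μM compound for 30 min were heated for 3 min over 48°C-58°C. After pooling and extraction in PBS with 0.5% NP-40 at 4°C, soluble protein from a 21,000xg, 90 min spin was quantified by TMTpro 16plex LC-MS/MS with channel sums equalised. Thermal stability is expressed against control samples, from duplicates, as a log2 fold change.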

By UniProt entry, the sequences of proteins in these tests, tags left out. Where a name states a change or a piece, a line headed by the entry shows the natural chain unless it says otherwise.
UniProt Q9Y4X5: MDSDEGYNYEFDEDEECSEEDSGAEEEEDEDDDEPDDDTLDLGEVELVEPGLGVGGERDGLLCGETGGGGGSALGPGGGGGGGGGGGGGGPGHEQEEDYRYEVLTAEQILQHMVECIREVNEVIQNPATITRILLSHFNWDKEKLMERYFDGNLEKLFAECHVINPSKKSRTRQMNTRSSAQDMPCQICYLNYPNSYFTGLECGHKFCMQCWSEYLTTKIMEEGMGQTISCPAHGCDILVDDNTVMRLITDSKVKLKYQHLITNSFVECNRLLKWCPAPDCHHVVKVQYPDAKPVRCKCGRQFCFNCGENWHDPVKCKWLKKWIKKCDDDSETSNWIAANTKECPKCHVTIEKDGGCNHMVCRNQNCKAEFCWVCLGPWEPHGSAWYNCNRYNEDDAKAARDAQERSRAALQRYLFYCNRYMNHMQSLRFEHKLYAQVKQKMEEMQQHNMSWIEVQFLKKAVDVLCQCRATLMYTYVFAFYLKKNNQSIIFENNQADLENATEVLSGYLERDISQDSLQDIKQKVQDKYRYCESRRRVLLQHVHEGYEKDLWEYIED
UniProt P08758: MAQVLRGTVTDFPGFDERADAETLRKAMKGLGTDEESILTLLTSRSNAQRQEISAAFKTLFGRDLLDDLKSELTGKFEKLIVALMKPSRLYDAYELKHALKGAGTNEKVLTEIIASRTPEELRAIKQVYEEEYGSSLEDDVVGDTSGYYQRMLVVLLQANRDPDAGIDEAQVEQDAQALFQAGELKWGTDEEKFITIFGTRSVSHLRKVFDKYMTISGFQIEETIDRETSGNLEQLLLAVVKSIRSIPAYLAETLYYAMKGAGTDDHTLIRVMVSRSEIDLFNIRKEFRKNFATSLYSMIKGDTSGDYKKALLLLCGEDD
UniProt P04083: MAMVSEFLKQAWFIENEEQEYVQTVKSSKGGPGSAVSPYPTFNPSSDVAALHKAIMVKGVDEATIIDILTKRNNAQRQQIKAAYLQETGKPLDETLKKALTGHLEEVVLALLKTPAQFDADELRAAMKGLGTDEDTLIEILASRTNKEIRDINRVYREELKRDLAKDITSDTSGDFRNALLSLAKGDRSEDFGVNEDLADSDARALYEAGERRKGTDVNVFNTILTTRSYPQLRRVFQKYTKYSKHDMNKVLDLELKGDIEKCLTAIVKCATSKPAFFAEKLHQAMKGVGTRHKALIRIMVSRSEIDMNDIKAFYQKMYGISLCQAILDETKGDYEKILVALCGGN
UniProt P58335, whole entry, looked up: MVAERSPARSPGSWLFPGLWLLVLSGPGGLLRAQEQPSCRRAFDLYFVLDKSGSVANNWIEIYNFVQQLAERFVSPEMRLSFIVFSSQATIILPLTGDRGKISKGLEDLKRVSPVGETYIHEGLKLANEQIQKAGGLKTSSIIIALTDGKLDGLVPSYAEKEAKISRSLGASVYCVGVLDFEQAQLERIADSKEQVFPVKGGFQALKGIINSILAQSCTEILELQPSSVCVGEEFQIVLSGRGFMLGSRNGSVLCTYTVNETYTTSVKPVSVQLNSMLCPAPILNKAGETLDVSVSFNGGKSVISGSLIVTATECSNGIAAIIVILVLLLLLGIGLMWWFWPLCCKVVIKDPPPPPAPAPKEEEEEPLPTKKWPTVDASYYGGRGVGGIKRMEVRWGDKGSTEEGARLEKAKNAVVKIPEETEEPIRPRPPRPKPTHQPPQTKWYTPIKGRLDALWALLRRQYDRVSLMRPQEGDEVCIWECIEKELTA
UniProt P52566: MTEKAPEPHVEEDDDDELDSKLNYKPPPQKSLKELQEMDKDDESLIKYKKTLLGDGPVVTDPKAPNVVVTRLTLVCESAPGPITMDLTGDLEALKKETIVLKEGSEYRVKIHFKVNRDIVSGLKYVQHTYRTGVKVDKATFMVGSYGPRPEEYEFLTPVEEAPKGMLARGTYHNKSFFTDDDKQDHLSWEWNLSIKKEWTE
UniProt O95445: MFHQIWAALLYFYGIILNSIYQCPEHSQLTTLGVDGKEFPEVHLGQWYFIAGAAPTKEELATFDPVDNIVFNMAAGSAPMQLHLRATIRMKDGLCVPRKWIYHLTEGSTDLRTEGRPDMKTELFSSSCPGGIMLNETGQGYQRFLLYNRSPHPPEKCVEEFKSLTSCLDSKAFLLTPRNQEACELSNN
UniProt Q9UPM8: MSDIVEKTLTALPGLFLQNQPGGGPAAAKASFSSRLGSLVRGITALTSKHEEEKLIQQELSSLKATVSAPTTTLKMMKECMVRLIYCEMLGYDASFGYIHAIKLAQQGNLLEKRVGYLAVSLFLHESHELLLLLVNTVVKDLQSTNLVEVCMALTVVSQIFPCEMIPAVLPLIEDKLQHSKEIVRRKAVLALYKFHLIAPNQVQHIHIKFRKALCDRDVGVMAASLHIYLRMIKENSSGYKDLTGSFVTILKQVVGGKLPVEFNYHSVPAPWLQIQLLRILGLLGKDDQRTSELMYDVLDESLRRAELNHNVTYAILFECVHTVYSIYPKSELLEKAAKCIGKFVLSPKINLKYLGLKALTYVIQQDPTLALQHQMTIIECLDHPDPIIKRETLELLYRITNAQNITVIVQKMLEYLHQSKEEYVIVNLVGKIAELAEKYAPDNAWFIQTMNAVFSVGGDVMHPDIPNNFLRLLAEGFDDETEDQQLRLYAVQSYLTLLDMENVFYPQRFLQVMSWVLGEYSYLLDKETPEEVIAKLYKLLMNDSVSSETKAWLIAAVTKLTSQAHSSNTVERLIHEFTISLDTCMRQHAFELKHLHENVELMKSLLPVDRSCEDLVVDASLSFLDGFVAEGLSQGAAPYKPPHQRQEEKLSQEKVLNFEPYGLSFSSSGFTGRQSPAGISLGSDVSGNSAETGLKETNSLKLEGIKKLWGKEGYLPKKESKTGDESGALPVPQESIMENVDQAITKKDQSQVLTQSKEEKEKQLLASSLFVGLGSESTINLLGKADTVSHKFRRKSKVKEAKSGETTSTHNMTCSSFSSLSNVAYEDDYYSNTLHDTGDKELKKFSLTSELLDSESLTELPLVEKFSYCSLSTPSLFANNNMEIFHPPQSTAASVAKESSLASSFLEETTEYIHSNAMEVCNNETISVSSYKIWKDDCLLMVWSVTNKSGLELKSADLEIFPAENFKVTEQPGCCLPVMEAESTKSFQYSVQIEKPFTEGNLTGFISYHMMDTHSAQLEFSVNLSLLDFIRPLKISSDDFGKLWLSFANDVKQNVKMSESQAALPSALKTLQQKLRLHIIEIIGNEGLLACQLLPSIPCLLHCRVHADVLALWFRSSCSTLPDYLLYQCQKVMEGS
UniProt Q9NP61: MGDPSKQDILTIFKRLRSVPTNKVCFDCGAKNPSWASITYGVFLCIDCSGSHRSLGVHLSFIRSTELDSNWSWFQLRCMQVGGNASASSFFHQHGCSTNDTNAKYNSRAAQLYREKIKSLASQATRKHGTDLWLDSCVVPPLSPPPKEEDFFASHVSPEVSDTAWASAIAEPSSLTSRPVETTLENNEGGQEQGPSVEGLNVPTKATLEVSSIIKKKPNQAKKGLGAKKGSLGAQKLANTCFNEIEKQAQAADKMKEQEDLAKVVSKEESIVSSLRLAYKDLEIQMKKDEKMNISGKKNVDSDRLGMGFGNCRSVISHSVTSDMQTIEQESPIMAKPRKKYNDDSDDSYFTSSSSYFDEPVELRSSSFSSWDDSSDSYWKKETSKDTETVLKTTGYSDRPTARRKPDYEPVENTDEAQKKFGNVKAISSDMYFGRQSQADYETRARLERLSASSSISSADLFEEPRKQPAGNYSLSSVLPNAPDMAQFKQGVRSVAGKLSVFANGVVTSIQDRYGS
UniProt P61204: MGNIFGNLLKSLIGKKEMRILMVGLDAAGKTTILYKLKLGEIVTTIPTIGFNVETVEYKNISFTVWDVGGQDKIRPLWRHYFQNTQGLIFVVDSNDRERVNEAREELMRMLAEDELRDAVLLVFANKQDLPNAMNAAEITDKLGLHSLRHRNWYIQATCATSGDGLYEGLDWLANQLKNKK
UniProt P62330: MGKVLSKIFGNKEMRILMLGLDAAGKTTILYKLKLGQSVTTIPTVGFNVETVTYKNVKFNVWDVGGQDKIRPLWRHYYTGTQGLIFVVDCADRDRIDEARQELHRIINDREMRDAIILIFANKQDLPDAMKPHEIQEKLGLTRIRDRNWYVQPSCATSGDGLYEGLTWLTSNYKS
UniProt Q92625: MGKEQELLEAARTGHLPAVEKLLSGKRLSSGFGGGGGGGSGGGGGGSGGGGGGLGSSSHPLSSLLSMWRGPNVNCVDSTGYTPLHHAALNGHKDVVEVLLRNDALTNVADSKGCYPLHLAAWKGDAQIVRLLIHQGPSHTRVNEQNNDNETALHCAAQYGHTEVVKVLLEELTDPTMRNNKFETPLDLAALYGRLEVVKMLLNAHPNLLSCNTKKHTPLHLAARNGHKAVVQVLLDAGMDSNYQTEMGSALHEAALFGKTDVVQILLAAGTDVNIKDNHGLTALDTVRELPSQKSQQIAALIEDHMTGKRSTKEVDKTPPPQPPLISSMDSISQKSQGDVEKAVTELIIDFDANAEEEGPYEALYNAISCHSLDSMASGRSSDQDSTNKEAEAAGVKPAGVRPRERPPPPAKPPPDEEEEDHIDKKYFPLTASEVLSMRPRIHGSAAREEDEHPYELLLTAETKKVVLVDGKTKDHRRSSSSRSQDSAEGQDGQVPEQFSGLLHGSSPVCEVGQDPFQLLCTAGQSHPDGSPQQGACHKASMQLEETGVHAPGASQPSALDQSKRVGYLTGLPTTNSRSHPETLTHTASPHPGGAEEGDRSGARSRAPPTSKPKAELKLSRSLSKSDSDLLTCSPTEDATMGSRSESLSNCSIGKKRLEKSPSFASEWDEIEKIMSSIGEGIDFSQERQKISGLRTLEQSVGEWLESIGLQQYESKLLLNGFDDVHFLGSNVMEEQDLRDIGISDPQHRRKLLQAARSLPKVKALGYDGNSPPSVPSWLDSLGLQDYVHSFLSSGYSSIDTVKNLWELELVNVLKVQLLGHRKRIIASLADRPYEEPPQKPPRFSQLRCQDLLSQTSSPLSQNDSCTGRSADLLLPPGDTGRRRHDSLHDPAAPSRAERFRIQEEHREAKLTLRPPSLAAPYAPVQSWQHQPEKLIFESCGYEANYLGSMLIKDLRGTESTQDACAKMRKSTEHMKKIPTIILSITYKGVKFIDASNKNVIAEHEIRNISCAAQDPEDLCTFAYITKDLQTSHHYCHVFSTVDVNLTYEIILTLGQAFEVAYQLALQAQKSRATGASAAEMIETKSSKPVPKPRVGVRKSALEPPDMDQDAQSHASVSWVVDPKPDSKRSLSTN
UniProt P02749: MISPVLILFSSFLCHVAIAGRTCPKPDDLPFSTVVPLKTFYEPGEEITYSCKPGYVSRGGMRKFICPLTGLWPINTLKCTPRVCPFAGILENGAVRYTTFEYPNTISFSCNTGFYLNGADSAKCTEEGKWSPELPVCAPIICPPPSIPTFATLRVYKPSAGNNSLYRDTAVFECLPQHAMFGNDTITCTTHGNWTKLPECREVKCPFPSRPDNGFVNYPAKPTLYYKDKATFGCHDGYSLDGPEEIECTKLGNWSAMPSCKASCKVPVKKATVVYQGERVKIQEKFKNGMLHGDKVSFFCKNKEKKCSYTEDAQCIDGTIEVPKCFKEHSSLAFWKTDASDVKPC
UniProt O94973, whole entry, looked up: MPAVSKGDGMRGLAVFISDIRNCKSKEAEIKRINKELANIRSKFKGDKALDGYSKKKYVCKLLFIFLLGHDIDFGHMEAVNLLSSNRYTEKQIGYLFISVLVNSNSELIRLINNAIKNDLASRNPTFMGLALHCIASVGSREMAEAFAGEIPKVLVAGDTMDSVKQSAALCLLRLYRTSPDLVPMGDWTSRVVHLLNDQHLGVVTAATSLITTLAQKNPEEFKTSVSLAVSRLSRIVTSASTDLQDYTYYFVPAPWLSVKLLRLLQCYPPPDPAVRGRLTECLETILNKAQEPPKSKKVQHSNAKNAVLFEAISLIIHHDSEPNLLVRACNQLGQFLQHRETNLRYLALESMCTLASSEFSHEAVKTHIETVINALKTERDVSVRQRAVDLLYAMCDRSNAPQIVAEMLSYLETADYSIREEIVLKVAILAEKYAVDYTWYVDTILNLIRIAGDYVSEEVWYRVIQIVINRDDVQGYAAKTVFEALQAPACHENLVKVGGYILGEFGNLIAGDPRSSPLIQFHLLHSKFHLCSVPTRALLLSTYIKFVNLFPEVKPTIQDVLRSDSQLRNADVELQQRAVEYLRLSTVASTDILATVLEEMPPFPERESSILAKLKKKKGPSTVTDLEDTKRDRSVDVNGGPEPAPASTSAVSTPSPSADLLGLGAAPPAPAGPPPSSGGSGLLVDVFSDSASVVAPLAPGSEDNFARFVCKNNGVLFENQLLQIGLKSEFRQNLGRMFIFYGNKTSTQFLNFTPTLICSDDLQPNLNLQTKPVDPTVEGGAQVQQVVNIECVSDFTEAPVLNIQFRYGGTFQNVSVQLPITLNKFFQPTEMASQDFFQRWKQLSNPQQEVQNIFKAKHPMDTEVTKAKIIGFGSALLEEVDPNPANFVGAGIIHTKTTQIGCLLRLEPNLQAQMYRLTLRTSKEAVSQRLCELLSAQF

[2] = compound: CC1=C(C=C(C=C1)NC(=O)C2=CC(=CC=C2)N(C)C)NC(=O)C3=CC=C(C=C3)O
In short: as §1

[3] = compound: CC1=CC=C(C=C1)SC2=C3C=C(SC3=CN=C2)C(=O)N
In short: as §1

[4] = compound: CC1=NC(=CC=C1)C2=C(N=C(N2)C(C)(C)C)C3=CC4=NC=CN=C4C=C3
In short: as §1

Nexturastat A = compound: CCCCN(Cc1ccc(C(=O)NO)cc1)C(=O)Nc1ccccc1 [Nexturastat A]
In short: as §1

vemurafenib = compound: CCCS(=O)(=O)Nc1ccc(F)c(C(=O)c2c[nH]c3ncc(-c4ccc(Cl)cc4)cc23)c1F [vemurafenib]
In short: as §1

[5] = compound: CCCS(=O)(=O)Nc1ccc(F)c(C(=O)c2c[nH]c3ncc(Cl)cc23)c1F
In short: as §1

[6] = compound: CCCc1cc(C)[nH]c(=O)c1CNC(=O)c1cc(-c2ccnc(N3CCN(C)CC3)c2)cc2c1cnn2C(C)C
In short: as §1

givinostat = compound: CCN(CC)Cc1ccc2cc(COC(=O)Nc3ccc(C(=O)NO)cc3)ccc2c1 [givinostat]
In short: as §1

barasertib = compound: CCN(CCCOc1ccc2c(Nc3cc(CC(=O)Nc4cccc(F)c4)[nH]n3)ncnc2c1)CCOP(=O)(O)O [barasertib]
In short: as §1

Measured: log2 fold change

ARIH1 (UniProt Q9Y4X5)
inactive: [1] -0.007 | [2] 0.034 | [3] 0.05 | [4] 0.006 | Nexturastat A -0.007 | vemurafenib -0.033 | [5] 0.01 | [6] -0.042 | givinostat -0.1 | barasertib 0.002

ARGLU1 (UniProt Q9NWB6)
inactive: [1] 0.046 | [2] 0.055 | [3] -0.136 | [4] -0.044 | Nexturastat A 0.147 | vemurafenib 0.061 | [5] -0.045 | [6] -0.009 | givinostat 0.001 | barasertib -0.075

AP1S1 (UniProt P61966)
inactive: [1] 0.054 | [2] -0.021 | [3] 0.013 | [4] -0.004 | Nexturastat A -0.068 | vemurafenib 0.024 | [5] 0.104 | [6] 0.065 | givinostat -0.003 | barasertib 0.04

ANXA5 (UniProt P08758)
inactive: [1] 0.057 | [2] -0.065 | [3] -0.01 | [4] 0.068 | Nexturastat A -0.116 | vemurafenib 0.07 | [5] 0.071 | [6] 0.039 | givinostat 0.033 | barasertib 0.034

ANXA1 (UniProt P04083)
inactive: [1] 0.109 | [2] -0.112 | [3] 0.024 | [4] 0.056 | Nexturastat A -0.007 | vemurafenib 0.046 | [5] 0.048 | [6] 0.016 | givinostat 0.077 | barasertib 0.064

ANTXR2 isoform 4 (UniProt P58335)
inactive: [1] -0.01 | [2] 0.029 | [3] 0.028 | [4] -0.004 | Nexturastat A -0.059 | vemurafenib -0.014 | [5] -0.006 | [6] -0.02 | givinostat 0.016 | barasertib -0.022

ANXA4 (UniProt P09525)
inactive: [1] -0.023 | [2] -0.031 | [3] -0.017 | [4] -0.026 | Nexturastat A -0.016 | vemurafenib 0.062 | [5] 0.051 | [6] 0.019 | givinostat 0.045 | barasertib 0.047

APOBR (UniProt Q0VD83)
inactive: [1] -0.039 | [2] 0.002 | [3] 0.034 | [4] -0.069 | Nexturastat A -0.079 | vemurafenib -0.043 | [5] 0.021 | [6] -0.005 | givinostat -0.023 | barasertib -0.012

ARHGDIB (UniProt P52566)
inactive: [1] 0.006 | [2] -0.028 | [3] -0.032 | [4] 0.024 | Nexturastat A -0.035 | vemurafenib -0.007 | [5] -0.045 | [6] -0.213 | givinostat -0.021 | barasertib 0.045

APOM (UniProt O95445)
inactive: [1] 0.02 | [2] 0.282 | [3] -0.111 | [4] 0.029 | Nexturastat A -0.032 | vemurafenib -0.032 | [5] -0.047 | [6] 0.097 | givinostat -0.134 | barasertib -0.139

ANAPC16 (UniProt Q96DE5)
inactive: [1] 0.026 | [2] -0.031 | [3] -0.047 | [4] -0.008 | Nexturastat A 0.035 | vemurafenib 0.076 | [5] -0.047 | [6] 0.032 | givinostat -0.025 | barasertib 0.092

AP4E1 (UniProt Q9UPM8)
inactive: [1] -0.014 | [2] 0.001 | [3] -0.05 | [4] 0.086 | Nexturastat A 0.207 | vemurafenib 0.022 | [5] 0.117 | [6] -0.067 | givinostat 0.033 | barasertib 0.407

ARF4 (UniProt P18085)
inactive: [1] 0.022 | [2] -0.014 | [3] 0 | [4] 0.012 | Nexturastat A -0.095 | vemurafenib 0.02 | [5] 0.022 | [6] 0.023 | givinostat 0.016 | barasertib 0.048

ARFGAP3 (UniProt Q9NP61)
inactive: [1] 0.008 | [2] 0.033 | [3] 0.003 | [4] -0.013 | Nexturastat A -0.02 | vemurafenib 0.028 | [5] 0 | [6] -0.014 | givinostat -0.008 | barasertib 0.037

ARFGEF2 (UniProt Q9Y6D5)
inactive: [1] -0.117 | [2] 0.012 | [3] -0.032 | [4] -0.023 | Nexturastat A -0.031 | vemurafenib 0.043 | [5] 0.075 | [6] 0.117 | givinostat 0.038 | barasertib 0.014

ANAPC7 (UniProt Q9UJX3)
inactive: [1] 0.008 | [2] -0.006 | [3] -0.009 | [4] -0.005 | Nexturastat A 0.058 | vemurafenib -0.002 | [5] 0.016 | [6] 0.019 | givinostat 0.061 | barasertib -0.006

ARFIP2 (UniProt P53365)
inactive: [1] -0.08 | [2] -0.07 | [3] 0.06 | [4] -0.013 | Nexturastat A -0.028 | vemurafenib 0.007 | [5] 0.127 | [6] -0.063 | givinostat 0.001 | barasertib 0.08

ARF3 (UniProt P61204)
inactive: [1] 0.024 | [2] 0.026 | [3] 0 | [4] 0.029 | Nexturastat A -0.091 | vemurafenib 0.02 | [5] 0.005 | [6] -0.012 | givinostat 0.005 | barasertib -0.014

ARF6 (UniProt P62330)
inactive: [1] 0 | [2] -0.033 | [3] 0.021 | [4] 0.033 | Nexturastat A -0.076 | vemurafenib -0.009 | [5] 0.022 | [6] -0.075 | givinostat 0.018 | barasertib -0.001

ANKS1A (UniProt Q92625)
inactive: [1] -0.018 | [2] 0.016 | [4] -0.098 | Nexturastat A 0.284 | barasertib -0.461

APOH (UniProt P02749)
inactive: [1] -0.346 | [2] 0.265 | [3] 0.055 | [4] 0.192 | vemurafenib 0.225 | [5] -0.063 | [6] -0.611 | givinostat 0.046 | barasertib -0.203

ANXA11 (UniProt P50995)
inactive: [1] 0.038 | [2] -0.054 | [3] 0.019 | [4] 0.047 | Nexturastat A -0.056 | vemurafenib 0.068 | [5] 0.053 | [6] 0 | givinostat 0.065 | barasertib 0.027

ARHGAP21 (UniProt Q5T5U3)
inactive: [1] -0.091 | [2] 0.204 | Nexturastat A 0.247 | [6] 0.142 | barasertib -0.456

APOBEC3C (UniProt Q9NRW3)
inactive: [1] 0.004 | [2] 0.032 | [3] -0.172 | [4] -0.069 | Nexturastat A 0.292 | vemurafenib -0.057 | [5] 0.013 | [6] -0.008 | givinostat 0.06 | barasertib -0.057

ARHGAP22 isoform 2 (UniProt Q7Z5H3)
inactive: [1] -0.141 | [2] -0.093 | [3] 0.043 | vemurafenib 0.058 | [5] -0.103

AP2A2 isoform 2 (UniProt O94973)
inactive: [1] 0.084 | [2] 0 | [3] 0.01 | [4] 0.049 | Nexturastat A 0.004 | vemurafenib -0.008 | [5] 0.002 | [6] 0.038 | givinostat 0.003 | barasertib 0.002

ARHGEF18 (UniProt Q6ZSZ5)
inactive: [1] 0.048 | [2] -0.126 | [3] 0.001 | Nexturastat A -0.102 | vemurafenib 0.042 | [5] -0.051 | [6] 0.088 | givinostat 0.123 | barasertib -0.004

API5 (UniProt Q9BZZ5)
inactive: [1] 0.001 | [2] 0.023 | [3] 0.019 | [4] 0.028 | Nexturastat A -0.045 | vemurafenib 0.005 | [5] 0.026 | [6] -0.042 | givinostat -0.019 | barasertib 0.01

ANP32B (UniProt Q92688)
inactive: [1] -0.069 | [2] 0.009 | [3] 0.004 | [4] 0.02 | Nexturastat A -0.034 | vemurafenib 0.001 | [5] 0 | [6] -0.024 | givinostat 0.002 | barasertib 0.017

Reference: the supplement of paper PMC10849652
